{"source": "PubChem BioAssay AID1259254 (NCATS, 2017)", "assay": "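Finding genes that stop cells copying their DNA twice in one cycle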 (primary screen)", "system": "human HCT116 colorectal cancer cells", "knock-down reagent": "single siRNA against human genes", "time to read-out": "3 days", "measurement": "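Nuclei stained with Hoechst and imaged; cell-cycle phase assigned by DNA content; G2 share scaled per plate, non-targeting siRNA 0%, GMNN siRNA 100%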", "reading the numbers": "G2 robust z-score and G2 cells, % of GMNN control: higher = more G2 cells, more excess DNA replication", "rule for the call": "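An siRNA counts as active if its G2 robust z-score lies at least 5 MADs above the screen median; here such calls match roughly 38% of GMNN control or more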", "note": "The whole screen tested about 59,000 reagents; shown is an unselected part. About 1,550 of them (2.6%) count as active. 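G2 share is only a proxy for re-replication; each gene was hit by three separate siRNAs, and active genes were retested.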 Reagents against one gene are numbered here. Not all columns of the deposit are shown. The record does not give: the amount of reagent."}
{"Gene": "CTTN (GeneID 2017)", "siRNA no.": 1, "G2 robust z-score": -0.572, "G2 cells, % of GMNN control": -1.06, "activity call": "inactive"}
{"Gene": "CTTN (GeneID 2017)", "siRNA no.": 2, "G2 robust z-score": -0.866, "G2 cells, % of GMNN control": -3.13, "activity call": "inactive"}
{"Gene": "CTTN (GeneID 2017)", "siRNA no.": 3, "G2 robust z-score": -0.662, "G2 cells, % of GMNN control": -1.69, "activity call": "inactive"}
{"Gene": "SYS1 (GeneID 90196)", "siRNA no.": 1, "G2 robust z-score": 0.551, "G2 cells, % of GMNN control": 6.84, "activity call": "inactive"}
{"Gene": "SYS1 (GeneID 90196)", "siRNA no.": 2, "G2 robust z-score": -0.269, "G2 cells, % of GMNN control": 1.08, "activity call": "inactive"}
{"Gene": "SYS1 (GeneID 90196)", "siRNA no.": 3, "G2 robust z-score": -0.872, "G2 cells, % of GMNN control": -3.16, "activity call": "inactive"}
{"Gene": "AGT (GeneID 183)", "siRNA no.": 1, "G2 robust z-score": -0.563, "G2 cells, % of GMNN control": -0.991, "activity call": "inactive"}
{"Gene": "AGT (GeneID 183)", "siRNA no.": 2, "G2 robust z-score": 0.912, "G2 cells, % of GMNN control": 9.39, "activity call": "inactive"}
{"Gene": "AGT (GeneID 183)", "siRNA no.": 3, "G2 robust z-score": 6.05, "G2 cells, % of GMNN control": 45.6, "activity call": "active"}
{"Gene": "TSHZ1 (GeneID 10194)", "siRNA no.": 1, "G2 robust z-score": -0.394, "G2 cells, % of GMNN control": 0.192, "activity call": "inactive"}
{"Gene": "TSHZ1 (GeneID 10194)", "siRNA no.": 2, "G2 robust z-score": 0.466, "G2 cells, % of GMNN control": 6.25, "activity call": "inactive"}
{"Gene": "TSHZ1 (GeneID 10194)", "siRNA no.": 3, "G2 robust z-score": -0.655, "G2 cells, % of GMNN control": -1.64, "activity call": "inactive"}
{"Gene": "SYNPO2 (GeneID 171024)", "siRNA no.": 1, "G2 robust z-score": 0.127, "G2 cells, % of GMNN control": 3.86, "activity call": "inactive"}
{"Gene": "SYNPO2 (GeneID 171024)", "siRNA no.": 2, "G2 robust z-score": -0.867, "G2 cells, % of GMNN control": -3.13, "activity call": "inactive"}
{"Gene": "SYNPO2 (GeneID 171024)", "siRNA no.": 3, "G2 robust z-score": 2.22, "G2 cells, % of GMNN control": 18.6, "activity call": "inactive"}
{"Gene": "RPL13 (GeneID 6137)", "siRNA no.": 1, "G2 robust z-score": 3.73, "G2 cells, % of GMNN control": 29.2, "activity call": "inactive"}
{"Gene": "RPL13 (GeneID 6137)", "siRNA no.": 2, "G2 robust z-score": 1.42, "G2 cells, % of GMNN control": 13, "activity call": "inactive"}
{"Gene": "RPL13 (GeneID 6137)", "siRNA no.": 3, "G2 robust z-score": 1.98, "G2 cells, % of GMNN control": 16.9, "activity call": "inactive"}
{"Gene": "RBAK (GeneID 57786)", "siRNA no.": 1, "G2 robust z-score": -0.12, "G2 cells, % of GMNN control": 2.12, "activity call": "inactive"}
{"Gene": "RBAK (GeneID 57786)", "siRNA no.": 2, "G2 robust z-score": -1.31, "G2 cells, % of GMNN control": -6.22, "activity call": "inactive"}
{"Gene": "RBAK (GeneID 57786)", "siRNA no.": 3, "G2 robust z-score": -0.69, "G2 cells, % of GMNN control": -1.89, "activity call": "inactive"}
{"Gene": "CYP4Z1 (GeneID 199974)", "siRNA no.": 1, "G2 robust z-score": -0.152, "G2 cells, % of GMNN control": 1.9, "activity call": "inactive"}
{"Gene": "CYP4Z1 (GeneID 199974)", "siRNA no.": 2, "G2 robust z-score": 5.08, "G2 cells, % of GMNN control": 38.7, "activity call": "active"}
{"Gene": "CYP4Z1 (GeneID 199974)", "siRNA no.": 3, "G2 robust z-score": 0.773, "G2 cells, % of GMNN control": 8.41, "activity call": "inactive"}

Targets above whose gene name starts with R or r (6):
{"Gene": "RPL13 (GeneID 6137)", "siRNA no.": 1, "G2 robust z-score": 3.73, "G2 cells, % of GMNN control": 29.2, "activity call": "inactive"}
{"Gene": "RPL13 (GeneID 6137)", "siRNA no.": 2, "G2 robust z-score": 1.42, "G2 cells, % of GMNN control": 13, "activity call": "inactive"}
{"Gene": "RPL13 (GeneID 6137)", "siRNA no.": 3, "G2 robust z-score": 1.98, "G2 cells, % of GMNN control": 16.9, "activity call": "inactive"}
{"Gene": "RBAK (GeneID 57786)", "siRNA no.": 1, "G2 robust z-score": -0.12, "G2 cells, % of GMNN control": 2.12, "activity call": "inactive"}
{"Gene": "RBAK (GeneID 57786)", "siRNA no.": 2, "G2 robust z-score": -1.31, "G2 cells, % of GMNN control": -6.22, "activity call": "inactive"}
{"Gene": "RBAK (GeneID 57786)", "siRNA no.": 3, "G2 robust z-score": -0.69, "G2 cells, % of GMNN control": -1.89, "activity call": "inactive"}
